Test results published in article PMC9457825.
No constants are given. Whether binding was seen depends on the method and setting. In cells and extracts the contact can be indirect. These calls come from enrichment with a bait or labelling near it, and not all partners need be listed.

Chains of the proteins cited; added tags and fusions are not shown. Residues count along the entry.
UniProt P01027, residues 671-748: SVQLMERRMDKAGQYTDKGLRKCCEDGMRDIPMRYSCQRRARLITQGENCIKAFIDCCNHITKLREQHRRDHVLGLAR
UniProt Q91VN6: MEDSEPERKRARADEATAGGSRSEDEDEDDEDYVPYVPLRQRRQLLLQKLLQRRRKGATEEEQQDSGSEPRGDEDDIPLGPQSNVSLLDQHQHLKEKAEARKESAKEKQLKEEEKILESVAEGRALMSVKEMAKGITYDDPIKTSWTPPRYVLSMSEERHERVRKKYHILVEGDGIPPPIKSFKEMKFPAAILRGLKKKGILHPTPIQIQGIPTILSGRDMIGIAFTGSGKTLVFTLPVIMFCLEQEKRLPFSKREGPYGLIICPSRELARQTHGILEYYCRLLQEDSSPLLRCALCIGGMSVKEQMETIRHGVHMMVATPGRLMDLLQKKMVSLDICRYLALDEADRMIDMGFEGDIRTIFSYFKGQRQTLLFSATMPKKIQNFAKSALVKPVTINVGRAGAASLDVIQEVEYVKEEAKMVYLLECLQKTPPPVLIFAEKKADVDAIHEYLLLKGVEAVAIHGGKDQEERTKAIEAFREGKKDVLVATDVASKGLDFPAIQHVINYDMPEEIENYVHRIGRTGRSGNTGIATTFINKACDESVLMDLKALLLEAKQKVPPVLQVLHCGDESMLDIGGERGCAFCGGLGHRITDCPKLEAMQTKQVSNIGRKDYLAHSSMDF
UniProt P09103, residues 20-509: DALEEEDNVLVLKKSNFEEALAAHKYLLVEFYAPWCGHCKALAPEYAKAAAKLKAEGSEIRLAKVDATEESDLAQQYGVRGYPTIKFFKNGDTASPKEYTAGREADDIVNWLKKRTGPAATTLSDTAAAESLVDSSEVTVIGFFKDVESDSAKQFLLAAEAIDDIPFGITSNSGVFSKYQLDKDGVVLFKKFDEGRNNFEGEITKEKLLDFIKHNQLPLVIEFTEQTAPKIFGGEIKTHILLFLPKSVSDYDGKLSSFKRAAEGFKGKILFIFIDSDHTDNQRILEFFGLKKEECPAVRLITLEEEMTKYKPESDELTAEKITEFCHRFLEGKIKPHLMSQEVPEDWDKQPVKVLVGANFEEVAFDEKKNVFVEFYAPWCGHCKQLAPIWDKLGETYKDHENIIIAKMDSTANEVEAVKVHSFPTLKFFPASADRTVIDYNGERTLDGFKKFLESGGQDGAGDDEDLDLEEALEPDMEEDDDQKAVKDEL

Biological target: GST-C3a (UniProt P01027)
Assay: affinity purification with mass spectrometry; GST pull-down: resin reacted first with the bacterial lysate holding GST-C3a, then with membrane proteins of bEnd3 cells; eluted with 20 mM reduced glutathione; LC-MS (Q Exactive); controls: GST with membrane proteins, GST-C3a with lysis buffer; only the target purified

| Substance | binding |
| --- | --- |
| Ddx41 (from UniProt Q91VN6 1-622) | binds |
| P4hb (from UniProt P09103 20-509) | binds |
